PubChem BioAssay AID652272 – Drosophila RNAi Screening Center | 2013
The deposit covers about 21,000 reagents; shown is an unselected part of those with a known target gene and a result. In the full data, 503 (2.4%) got an active call. 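Raw plate light values, not normalised; calls rest on replicate z-scores that were not deposited; hits include reporter decreases as well as increases.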 The numbers tell different reagents against one gene apart. Not given: the amount of reagent, the time to read-out.

Assay: 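Genes whose knock-down decreases or increases Hedgehog reporter output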 (primary screen)
Cell system: Drosophila clone 8 (Cl8) cells
Knock-down reagent: long dsRNA against Drosophila genes
Measurement: 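Firefly light from a Hedgehog-responsive ptc promoter reporter and Renilla reference light, both read on a plate reader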
Direction: firefly Hh reporter signal: higher = more ptc reporter light; Renilla reference signal: higher = more Renilla control light
Active means: 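Hit when the z-score averaged over two replicates is under -2 or over +3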
Meaning of the calls: active = hit: reporter lowered or raised; inactive = not a hit

For Ets97D (Ets at 97D), what was measured?
firefly Hh reporter signal, replicate 1: 90492; firefly Hh reporter signal, replicate 2: 1.08e5; Renilla reference signal, replicate 1: 3608; Renilla reference signal, replicate 2: 3099; Call: inactive

With uno (univalents only), what does the deposit list?
firefly Hh reporter signal, replicate 1: 74907; firefly Hh reporter signal, replicate 2: 68026; Renilla reference signal, replicate 1: 1824; Renilla reference signal, replicate 2: 7421; Call: inactive

How did the screen score Shrm (Shroom) #1?
firefly Hh reporter signal, replicate 1: 54610; firefly Hh reporter signal, replicate 2: 47607; Renilla reference signal, replicate 1: 1306; Renilla reference signal, replicate 2: 3146; Call: inactive

How did the screen score Shrm (Shroom) #2?
firefly Hh reporter signal, replicate 1: 93124; firefly Hh reporter signal, replicate 2: 57347; Renilla reference signal, replicate 1: 2392; Renilla reference signal, replicate 2: 4561; Call: inactive

For Shrm (Shroom) #3, what does the deposit list?
firefly Hh reporter signal, replicate 1: 82400; firefly Hh reporter signal, replicate 2: 67206; Renilla reference signal, replicate 1: 3297; Renilla reference signal, replicate 2: 2592; Call: inactive

Which result is listed for CG30109?
firefly Hh reporter signal, replicate 1: 1.10e5; firefly Hh reporter signal, replicate 2: 2.60e5; Renilla reference signal, replicate 1: 3210; Renilla reference signal, replicate 2: 9405; Call: inactive

For CG42553, how do the results read?
firefly Hh reporter signal, replicate 1: 88377; firefly Hh reporter signal, replicate 2: 41607; Renilla reference signal, replicate 1: 2800; Renilla reference signal, replicate 2: 3290; Call: inactive

What did the screen give for dpr13 (defective proboscis extension response 13) #1?
firefly Hh reporter signal, replicate 1: 76797; firefly Hh reporter signal, replicate 2: 73425; Renilla reference signal, replicate 1: 1993; Renilla reference signal, replicate 2: 5497; Call: inactive

What is on record for dpr13 (defective proboscis extension response 13) #2?
firefly Hh reporter signal, replicate 1: 80944; firefly Hh reporter signal, replicate 2: 82331; Renilla reference signal, replicate 1: 2154; Renilla reference signal, replicate 2: 5804; Call: inactive

For CG11608, what does the deposit list?
firefly Hh reporter signal, replicate 1: 84018; firefly Hh reporter signal, replicate 2: 1.48e5; Renilla reference signal, replicate 1: 3201; Renilla reference signal, replicate 2: 4176; Call: inactive

With Tsp86D (Tetraspanin 86D), how do the results read?
firefly Hh reporter signal, replicate 1: 72999; firefly Hh reporter signal, replicate 2: 1.26e5; Renilla reference signal, replicate 1: 2690; Renilla reference signal, replicate 2: 3779; Call: inactive

Which result is listed for Spn53F (Serpin 53F)?
firefly Hh reporter signal, replicate 1: 78593; firefly Hh reporter signal, replicate 2: 44710; Renilla reference signal, replicate 1: 2233; Renilla reference signal, replicate 2: 3293; Call: inactive

In a second layout: results already given
target gene	reagent no.	firefly Hh reporter signal, replicate 1	firefly Hh reporter signal, replicate 2	Renilla reference signal, replicate 1	Renilla reference signal, replicate 2	Call
Shrm (Shroom)	3	82400	67206	3297	2592	inactive
CG30109	1	1.10e5	2.60e5	3210	9405	inactive
